Assay results taken from paper doi:10.1101/2022.09.03.506457 (bioRxiv, 2022).
No constants are given. Whether binding was seen depends on the method and setting. One block for each binder: values may come before it.

Assays:
[1] = target: Methanocaldococcus jannaschii fumarate hydratase β-subunit (Methanocaldococcus jannaschii) (UniProt Q58034); assay: crystal structure
[2] = target: Methanocaldococcus jannaschii fumarate hydratase β-subunit (Methanocaldococcus jannaschii) (UniProt Q58034); assay: SEC
[3] = target: Selenomethionine incorporated Methanocaldococcus jannaschii fumarate hydratase β-subunit (of Se-MjFHαβ) (Methanocaldococcus jannaschii) (UniProt Q58034); assay: crystal structure

binding [1]: no binding
binding [2]: no binding
B1: Methanocaldococcus jannaschii fumarate hydratase β-subunit (enzyme)
chain: MEYTFNKLTKKDVKKLKVGDIVYLNGKIYTARDEAHLKIIEMLKSNEKLPFDLNESIIYHAGPIMKKVNDSWVCVSIGPTTSARMNDVEEEFIKLTNISAIVGKGGMKKELLKTFEDYGVVYLAAPGGCAALLANSVKRVDNVYFLDELGMPEAVWELEVNNFGPLIVAMDSHGNSIYEEVNKKVYEKLNELIGL

binding [3]: no binding
B2: Selenomethionine incorporated Methanocaldococcus jannaschii fumarate hydratase β-subunit (of Se-MjFHαβ) (enzyme, UniProt Q58034 1-195)
chain: B1 chain
modifications: selenomethionine incorporated (eleven selenium atoms per functional dimer)
